Measurements published in PMC11370900.
These are yes or no findings as the source states them, for the method shown. In cells and extracts the contact can be indirect. Some binding calls cover weakened binding; strength is not graded here.

Amino acid sequences for entries named in this document (tags omitted).
UniProt O95817: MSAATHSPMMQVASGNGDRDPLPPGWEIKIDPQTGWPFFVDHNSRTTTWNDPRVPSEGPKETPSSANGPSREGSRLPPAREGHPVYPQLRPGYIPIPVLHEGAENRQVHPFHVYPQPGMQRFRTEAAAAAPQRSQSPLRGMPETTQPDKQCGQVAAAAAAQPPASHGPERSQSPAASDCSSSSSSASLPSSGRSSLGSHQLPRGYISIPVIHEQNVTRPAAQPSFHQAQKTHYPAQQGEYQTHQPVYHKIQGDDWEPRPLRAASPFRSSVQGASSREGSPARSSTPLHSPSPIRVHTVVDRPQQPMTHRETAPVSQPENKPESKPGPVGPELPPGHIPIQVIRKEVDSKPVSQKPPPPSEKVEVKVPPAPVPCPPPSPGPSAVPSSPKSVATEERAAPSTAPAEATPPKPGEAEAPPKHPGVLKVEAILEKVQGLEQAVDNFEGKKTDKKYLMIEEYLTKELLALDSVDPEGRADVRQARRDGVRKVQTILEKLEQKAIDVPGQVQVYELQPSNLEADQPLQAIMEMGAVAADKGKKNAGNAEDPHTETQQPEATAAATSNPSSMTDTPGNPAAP

Target: T1, heat shock protein B8 (HSPB8) (human) (UniProt Q9UJY1)
T1 sequence: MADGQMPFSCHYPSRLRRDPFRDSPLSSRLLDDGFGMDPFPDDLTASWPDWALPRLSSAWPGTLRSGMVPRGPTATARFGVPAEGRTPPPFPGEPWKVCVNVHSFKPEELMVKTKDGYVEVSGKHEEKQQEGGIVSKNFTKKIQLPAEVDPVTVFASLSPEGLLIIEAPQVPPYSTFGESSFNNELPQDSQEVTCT
Experiment: co-IP; cells lysed in RIPA lysis buffer; antibody on Dynabeads Protein G mixed with the lysate overnight at 4°C; washed three times with lysis buffer; bound proteins detected by Western blotting

binding: binds
Substance: BCL2-associated athanogene 3 (BAG3) (from UniProt O95817 1-575)
